# Assay results reported in the supplement of paper PMC8728848.
# Some of the results follow.
# B1: EULS2 M1 (Oryza sativa) (protein)
# chain: MVYCRANPNYAMTARNGAVVLAPANPKDEYQHWIKDMRWSTSIKDEEGYPAFALVNKATGQAIKHSLGQSHPVRLVPYNPEVMDESVLWTESRDVGNGFRCIRMVNNIYLNFDAFHGDKYHGGVRDGTDIVLWKLCEGDNQRWKIQPYYILEQKLISEEDLNSAVDHHHHHH
# What was measured:
# Assay in all cases: glycan array binding signal (z-score within array); higher = stronger binding
# Conditions in all cases: glycan notation: IUPAC condensed, linker removed
# [1] = molecular target: Fuc(a1-2)Gal
# Summary of the method: (§1)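 Glycan array data came from 3228 arrays in the Consortium for Functional Glycomics database, and only arrays with an available protein sequence were kept. Glycan names were put into IUPAC-condensed notation, and columns mapping to the same glycan were averaged. The binding signal is a within-array Z-score, averaged across arrays of one protein sequence run at different concentrations or buffers and across linkers. A negative Z-score can be read as non-binding.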
# [2] = molecular target: Fuc(a1-2)Gal(b1-3)GalNAc
# Summary of the method: as §1
# [3] = molecular target: Fuc(a1-2)Gal(b1-3)GalNAc(a1-3)[Fuc(a1-2)]Gal(b1-4)Glc
# Summary of the method: as §1
# [4] = molecular target: Fuc(a1-2)Gal(b1-3)GalNAc(a1-3)[Fuc(a1-2)]Gal(b1-4)GlcNAc
# Summary of the method: as §1
# [5] = molecular target: Fuc(a1-2)Gal(b1-3)GalNAc(b1-3)Gal
# Summary of the method: as §1
# [6] = molecular target: Fuc(a1-2)Gal(b1-3)GalNAc(b1-3)Gal(a1-4)Gal(b1-4)Glc
# Summary of the method: as §1
# [7] = molecular target: Fuc(a1-2)Gal(b1-3)GalNAc(b1-4)[Neu5Ac(a2-3)]Gal(b1-4)Glc
# Summary of the method: as §1
# [8] = molecular target: Fuc(a1-2)Gal(b1-3)GlcNAc
# Summary of the method: as §1
# [9] = molecular target: Fuc(a1-2)Gal(b1-3)GlcNAc(b1-2)Man(a1-3)[Fuc(a1-2)Gal(b1-3)GlcNAc(b1-2)Man(a1-6)]Man(b1-4)GlcNAc(b1-4)GlcNAc
# Summary of the method: as §1
# [10] = molecular target: Fuc(a1-2)Gal(b1-3)GlcNAc(b1-2)Man(a1-3)[Fuc(a1-2)Gal(b1-3)GlcNAc(b1-2)Man(a1-6)]Man(b1-4)GlcNAc(b1-4)[Fuc(a1-6)]GlcNAc
# Summary of the method: as §1
# [11] = molecular target: Fuc(a1-2)Gal(b1-3)GlcNAc(b1-3)Gal(b1-4)Glc
# Summary of the method: as §1
# [12] = molecular target: Fuc(a1-2)Gal(b1-3)GlcNAc(b1-3)GalNAc
# Summary of the method: as §1
# [13] = molecular target: Fuc(a1-2)Gal(b1-3)GlcNAc(b1-3)[Fuc(a1-2)Gal(b1-3)GlcNAc(b1-6)]GalNAc
# Summary of the method: as §1
# [14] = molecular target: Fuc(a1-2)Gal(b1-3)GlcNAc(b1-3)[Gal(b1-4)GlcNAc(b1-6)]Gal(b1-4)Glc
# Summary of the method: as §1
# [15] = molecular target: Fuc(a1-2)Gal(b1-3)GlcNAc(b1-3)[Neu5Ac(a2-6)Gal(b1-4)GlcNAc(b1-6)]Gal(b1-4)Glc
# Summary of the method: as §1
# [16] = molecular target: Fuc(a1-2)Gal(b1-3)GlcNAc6S
# Summary of the method: as §1
# [17] = molecular target: Fuc(a1-2)Gal(b1-3)[Fuc(a1-4)]GlcNAc
# Summary of the method: as §1
# [18] = molecular target: Fuc(a1-2)Gal(b1-3)[Fuc(a1-4)]GlcNAc(b1-2)Man(a1-3)[Fuc(a1-2)Gal(b1-3)[Fuc(a1-4)]GlcNAc(b1-2)Man(a1-3)]Man(b1-4)GlcNAc(b1-4)GlcNAc
# Summary of the method: as §1
# [19] = molecular target: Fuc(a1-2)Gal(b1-3)[Fuc(a1-4)]GlcNAc(b1-2)Man(a1-3)[Fuc(a1-2)Gal(b1-3)[Fuc(a1-4)]GlcNAc(b1-2)Man(a1-6)]Man(b1-4)GlcNAc(b1-4)[Fuc(a1-6)]GlcNAc(b1-4)[Fuc(a1-6)]GlcNAc
# Summary of the method: as §1
# [20] = molecular target: Fuc(a1-2)Gal(b1-3)[Fuc(a1-4)]GlcNAc(b1-3)[Fuc(a1-3)[Gal(b1-4)]GlcNAc(b1-6)]Gal(b1-4)Glc
# Summary of the method: as §1
# [21] = molecular target: Fuc(a1-2)Gal(b1-3)[Fuc(a1-4)]GlcNAc(b1-3)[Gal(b1-4)GlcNAc(b1-6)]Gal(b1-4)Glc
# Summary of the method: as §1
# [22] = molecular target: Fuc(a1-2)Gal(b1-4)Glc
# Summary of the method: as §1
# [23] = molecular target: Fuc(a1-2)Gal(b1-4)Glc6S
# Summary of the method: as §1
# [24] = molecular target: Fuc(a1-2)Gal(b1-4)GlcNAc
# Summary of the method: as §1
# [25] = molecular target: Fuc(a1-2)Gal(b1-4)GlcNAc(b1-2)Man
# Summary of the method: as §1
# [26] = molecular target: Fuc(a1-2)Gal(b1-4)GlcNAc(b1-2)Man(a1-3)[Fuc(a1-2)Gal(b1-4)GlcNAc(b1-2)Man(a1-6)]Man(b1-4)GlcNAc(b1-4)GlcNAc
# Summary of the method: as §1
# [27] = molecular target: Fuc(a1-2)Gal(b1-4)GlcNAc(b1-2)Man(a1-3)[Fuc(a1-2)Gal(b1-4)GlcNAc(b1-2)Man(a1-6)]Man(b1-4)GlcNAc(b1-4)[Fuc(a1-6)]GlcNAc
# Summary of the method: as §1
# [28] = molecular target: Fuc(a1-2)Gal(b1-4)GlcNAc(b1-2)[Fuc(a1-2)Gal(b1-4)GlcNAc(b1-4)]Man(a1-3)[Fuc(a1-2)Gal(b1-4)GlcNAc(b1-2)Man(a1-6)]Man(b1-4)GlcNAc(b1-4)GlcNAc
# Summary of the method: as §1
# [29] = molecular target: Fuc(a1-2)Gal(b1-4)GlcNAc(b1-3)Gal(b1-4)GlcNAc
# Summary of the method: as §1
# [30] = molecular target: Fuc(a1-2)Gal(b1-4)GlcNAc(b1-3)Gal(b1-4)GlcNAc(b1-2)Man(a1-3)[Fuc(a1-2)Gal(b1-4)GlcNAc(b1-3)Gal(b1-4)GlcNAc(b1-2)Man(a1-6)]Man(b1-4)GlcNAc(b1-4)GlcNAc
# Summary of the method: as §1
# [31] = molecular target: Fuc(a1-2)Gal(b1-4)GlcNAc(b1-3)Gal(b1-4)GlcNAc(b1-3)Gal(b1-4)GlcNAc
# Summary of the method: as §1
# [32] = molecular target: Fuc(a1-2)Gal(b1-4)GlcNAc(b1-3)GalNAc
# Summary of the method: as §1
# [33] = molecular target: Fuc(a1-2)Gal(b1-4)GlcNAc(b1-3)[Fuc(a1-2)Gal(b1-4)GlcNAc(b1-6)]GalNAc
# Summary of the method: as §1
# [34] = molecular target: Fuc(a1-2)Gal(b1-4)GlcNAc(b1-3)[Fuc(a1-3)[Gal(b1-4)]GlcNAc(b1-6)]Gal(b1-4)Glc
# Summary of the method: as §1
# [35] = molecular target: Fuc(a1-2)Gal(b1-4)GlcNAc(b1-6)GalNAc
# Summary of the method: as §1
# [36] = molecular target: Fuc(a1-2)Gal(b1-4)GlcNAc6S
# Summary of the method: as §1
# [37] = molecular target: Fuc(a1-2)Gal(b1-4)[Fuc(a1-3)]GlcNAc
# Summary of the method: as §1
# [38] = molecular target: Fuc(a1-2)Gal(b1-4)[Fuc(a1-3)]GlcNAc(b1-2)Man(a1-3)[Fuc(a1-2)Gal(b1-4)[Fuc(a1-3)]GlcNAc(b1-2)Man(a1-6)]Man(b1-4)GlcNAc(b1-4)[Fuc(a1-6)]GlcNAc
# Summary of the method: as §1
# [39] = molecular target: Fuc(a1-2)Gal(b1-4)[Fuc(a1-3)]GlcNAc(b1-2)[Fuc(a1-2)Gal(b1-4)[Fuc(a1-3)]GlcNAc(b1-4)]Man(a1-3)[Fuc(a1-2)Gal(b1-4)[Fuc(a1-3)]GlcNAc(b1-2)Man(a1-6)]Man(b1-4)GlcNAc(b1-4)GlcNAc
# Summary of the method: as §1
# [40] = molecular target: Fuc(a1-2)Gal(b1-4)[Fuc(a1-3)]GlcNAc(b1-3)Gal(b1-4)[Fuc(a1-3)]GlcNAc
# Summary of the method: as §1
# [41] = molecular target: Fuc(a1-2)Gal(b1-4)[Fuc(a1-3)]GlcNAc(b1-3)Gal(b1-4)[Fuc(a1-3)]GlcNAc(b1-3)Gal(b1-4)[Fuc(a1-3)]GlcNAc
# Summary of the method: as §1
# [42] = molecular target: Fuc(a1-2)Gal(b1-4)[Fuc(a1-3)]GlcNAc(b1-3)GalNAc
# Summary of the method: as §1
# [43] = molecular target: Fuc(a1-2)Gal(b1-4)[Fuc(a1-3)]GlcNAc(b1-3)[Neu5Ac(a2-6)Gal(b1-4)GlcNAc(b1-6)]Gal(b1-4)Glc
# Summary of the method: as §1
# [44] = molecular target: Fuc(a1-2)Gal3S(b1-4)GlcNAc
# Summary of the method: as §1
# [45] = molecular target: Fuc(a1-2)Gal6S(b1-3)GlcNAc
# Summary of the method: as §1
binder,measurement,setting,value
B1,glycan array binding signal (z-score),[1],1.54
same,glycan array binding signal (z-score),[2],-0.456
same,glycan array binding signal (z-score),[3],-0.333
same,glycan array binding signal (z-score),[4],0.17
same,glycan array binding signal (z-score),[5],-0.281
same,glycan array binding signal (z-score),[6],1.34
same,glycan array binding signal (z-score),[7],-0.318
same,glycan array binding signal (z-score),[8],-0.123
same,glycan array binding signal (z-score),[9],0.35
same,glycan array binding signal (z-score),[10],-0.068
same,glycan array binding signal (z-score),[11],-0.208
same,glycan array binding signal (z-score),[12],0
same,glycan array binding signal (z-score),[13],-0.878
same,glycan array binding signal (z-score),[14],-0.34
same,glycan array binding signal (z-score),[15],-0.404
same,glycan array binding signal (z-score),[16],-0.334
same,glycan array binding signal (z-score),[17],0.584
same,glycan array binding signal (z-score),[18],0.639
same,glycan array binding signal (z-score),[19],0.969
same,glycan array binding signal (z-score),[20],-0.033
same,glycan array binding signal (z-score),[21],-0.499
same,glycan array binding signal (z-score),[22],-0.519
same,glycan array binding signal (z-score),[23],-0.329
same,glycan array binding signal (z-score),[24],-0.592
same,glycan array binding signal (z-score),[25],-0.162
same,glycan array binding signal (z-score),[26],2.08
same,glycan array binding signal (z-score),[27],1.59
same,glycan array binding signal (z-score),[28],0.298
same,glycan array binding signal (z-score),[29],-0.744
same,glycan array binding signal (z-score),[30],-0.1
same,glycan array binding signal (z-score),[31],-0.231
same,glycan array binding signal (z-score),[32],-0.497
same,glycan array binding signal (z-score),[33],-0.457
same,glycan array binding signal (z-score),[34],-0.817
same,glycan array binding signal (z-score),[35],-0.401
same,glycan array binding signal (z-score),[36],-0.194
same,glycan array binding signal (z-score),[37],-0.363
same,glycan array binding signal (z-score),[38],0.739
same,glycan array binding signal (z-score),[39],-0.19
same,glycan array binding signal (z-score),[40],-0.074
same,glycan array binding signal (z-score),[41],-0.582
same,glycan array binding signal (z-score),[42],1.47
same,glycan array binding signal (z-score),[43],-0.018
same,glycan array binding signal (z-score),[44],-0.518
same,glycan array binding signal (z-score),[45],-0.164

# For convenience, part of the list above.
binder,measurement,setting,value
B1,glycan array binding signal (z-score),[26],2.08
same,glycan array binding signal (z-score),[27],1.59
